Measurements taken from publication PMC6503738.
No constants are given. Whether binding was seen depends on the method and setting. Binding seen in cells or lysates may run through a third protein. Some entries that bind do so weakly or less than the wild type. Where a sequence is shown, tags or fusion partners need not be part of it. One block for each binder: values may come before it.

Key:
FLAG-tagged TBK1 = target: T1, FLAG-tagged TBK1 (UniProt Q9UHD2); assay: co-IP; FLAG-TBK1 and GFP-PI31 expressed in hNOD2 HEK293 cells, with or without MDP; lysate immunoprecipitated with anti-Flag, blotted with anti-GFP
T1 sequence: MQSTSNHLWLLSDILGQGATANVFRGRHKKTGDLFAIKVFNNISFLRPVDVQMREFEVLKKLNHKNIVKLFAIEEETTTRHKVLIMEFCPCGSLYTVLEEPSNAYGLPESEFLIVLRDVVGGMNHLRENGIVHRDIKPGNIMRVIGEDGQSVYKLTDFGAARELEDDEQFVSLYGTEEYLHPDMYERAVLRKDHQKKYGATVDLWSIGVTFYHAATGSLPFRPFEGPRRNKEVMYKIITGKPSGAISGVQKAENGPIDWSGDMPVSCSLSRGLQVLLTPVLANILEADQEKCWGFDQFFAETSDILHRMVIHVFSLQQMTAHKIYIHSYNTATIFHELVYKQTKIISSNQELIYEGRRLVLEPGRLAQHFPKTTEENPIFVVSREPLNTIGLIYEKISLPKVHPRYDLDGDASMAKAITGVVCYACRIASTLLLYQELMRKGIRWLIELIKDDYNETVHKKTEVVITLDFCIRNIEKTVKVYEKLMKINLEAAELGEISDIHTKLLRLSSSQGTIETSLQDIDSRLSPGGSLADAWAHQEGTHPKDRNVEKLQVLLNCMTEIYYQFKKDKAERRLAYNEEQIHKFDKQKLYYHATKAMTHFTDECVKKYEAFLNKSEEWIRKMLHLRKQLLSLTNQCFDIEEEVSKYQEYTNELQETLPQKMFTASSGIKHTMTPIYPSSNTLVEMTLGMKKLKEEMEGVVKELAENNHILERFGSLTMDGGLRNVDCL

HA-tagged PI31 = target: T2, HA-tagged PI31 (UniProt Q92530); assay: co-IP; HA-PI31 and FLAG-TBK1 co-expressed in HEK293 cells expressing human NOD2, with or without MDP for 30 min; lysate (1% TritonX-100, 150 mM NaCl, Tris pH 8.0) immunoprecipitated with anti-HA, blotted with anti-Flag
T2 sequence: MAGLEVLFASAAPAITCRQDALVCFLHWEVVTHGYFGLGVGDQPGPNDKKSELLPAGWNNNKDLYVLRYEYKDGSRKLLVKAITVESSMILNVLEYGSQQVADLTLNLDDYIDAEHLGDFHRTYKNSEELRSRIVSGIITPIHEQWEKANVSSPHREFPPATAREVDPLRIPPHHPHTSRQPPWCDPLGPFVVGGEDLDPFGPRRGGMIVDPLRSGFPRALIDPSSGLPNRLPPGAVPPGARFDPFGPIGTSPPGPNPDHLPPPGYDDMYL

binding (FLAG-tagged TBK1): binds
B1: GFP-PI31 (protein, UniProt Q92530 1-271)
chain: T2 sequence

binding (HA-tagged PI31): binds
B2: FLAG-tagged TBK1 (enzyme, UniProt Q9UHD2 1-729)
chain: T1 sequence
